The text below walks through data of PMC10687025.

Holding throughout (assay): two-hybrid; yeast strain L40; LexA DNA-binding domain fusions (pBTM116) against Gal4 activation domain fusions; His+ colonies patched on selective plates and assayed for β-galactosidase activity on filters; 30 °C
Assay [1] has as its target T1, Arl4C T27N fused to the LexA DNA-binding domain (UniProt P56559).
T1 sequence: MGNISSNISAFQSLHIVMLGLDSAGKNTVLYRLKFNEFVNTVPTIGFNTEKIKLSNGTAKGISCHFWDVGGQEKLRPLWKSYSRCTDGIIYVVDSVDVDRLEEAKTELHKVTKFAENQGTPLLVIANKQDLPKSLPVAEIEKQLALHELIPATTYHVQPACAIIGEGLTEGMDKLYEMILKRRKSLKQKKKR

Assay [2] concerns the target T2, Arl4A T34N fused to the LexA DNA-binding domain (UniProt P40617).
T2 sequence: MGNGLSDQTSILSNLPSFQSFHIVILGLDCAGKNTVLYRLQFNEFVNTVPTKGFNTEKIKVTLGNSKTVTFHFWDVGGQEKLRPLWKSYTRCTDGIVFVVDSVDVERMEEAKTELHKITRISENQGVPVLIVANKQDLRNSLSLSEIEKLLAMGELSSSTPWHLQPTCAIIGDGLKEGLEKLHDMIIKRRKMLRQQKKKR

Assay [3] addresses T3, Arl4D WT fused to the LexA DNA-binding domain (UniProt P49703).
T3 sequence: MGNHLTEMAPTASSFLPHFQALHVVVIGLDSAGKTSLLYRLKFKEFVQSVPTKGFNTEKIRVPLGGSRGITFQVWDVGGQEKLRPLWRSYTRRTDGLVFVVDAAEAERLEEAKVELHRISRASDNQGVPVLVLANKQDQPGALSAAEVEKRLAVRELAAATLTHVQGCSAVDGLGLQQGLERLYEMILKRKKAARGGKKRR

Assay [4] has as its target T4, Arl4D T35N fused to the LexA DNA-binding domain (UniProt P49703).
T4 sequence: T3 sequence with T35N

The target in assay [5] is T5, Arl4A T51N fused to the LexA DNA-binding domain (UniProt P40617).
T5 sequence: T2 sequence with N34T, T51N

Assay [6] concerns the target T6, Arl4D Q80L fused to the LexA DNA-binding domain (UniProt P49703).
T6 sequence: T3 sequence with Q80L

In assay [7] the target is T7, Arl4C Q72L fused to the LexA DNA-binding domain (UniProt P56559).
T7 sequence: T1 sequence with N27T, Q72L

Assay [8] concerns the target T8, Arl4A Q79L fused to the LexA DNA-binding domain (UniProt P40617).
T8 sequence: T2 sequence with N34T, Q79L

Assay [9] has as its target T9, Arl4C WT fused to the LexA DNA-binding domain (UniProt P56559).
T9 sequence: T1 sequence with N27T

Assay [10] concerns the target T10, Arl4C T44N fused to the LexA DNA-binding domain (UniProt P56559).
T10 sequence: T1 sequence with N27T, T44N

Assay [11] addresses T11, Arl4A WT fused to the LexA DNA-binding domain (UniProt P40617).
T11 sequence: T2 sequence with N34T

Residue numbers refer to the chain shown, from its start. Results are given in words; binding and its absence hold for the method and conditions named. Some results given as binding are weak or reduced against the parent protein; the word gives no strength. Where a sequence is shown, tags or fusion partners need not be part of it.

B1: Gal4 transcriptional activation domain-fused VPS36 (330–386) (domain or fragment, UniProt Q86VN1 330-386)
chain: TVSEKGSLTSEEFAKLVGMSVLLAKERLLLAEKMGHLCRDDSVEGLRFYPNLFMTQS
B1: the binding result in assay [1] is listed as “no binding”; in [2] it was “binds”; in [3], “no binding”; in assay [4], “no binding”; in [5] it was “binds”; in assay [6], “no binding”. In addition, the binding result in [7] is listed as “no binding”; in assay [8] it was “binds”; in assay [9] it was “no binding”; in assay [10], “no binding”; in [11], “binds”.
